This is an account of results in publication doi:10.1101/170100.

Chains of the proteins cited; added tags and fusions are not shown.
UniProt O09032: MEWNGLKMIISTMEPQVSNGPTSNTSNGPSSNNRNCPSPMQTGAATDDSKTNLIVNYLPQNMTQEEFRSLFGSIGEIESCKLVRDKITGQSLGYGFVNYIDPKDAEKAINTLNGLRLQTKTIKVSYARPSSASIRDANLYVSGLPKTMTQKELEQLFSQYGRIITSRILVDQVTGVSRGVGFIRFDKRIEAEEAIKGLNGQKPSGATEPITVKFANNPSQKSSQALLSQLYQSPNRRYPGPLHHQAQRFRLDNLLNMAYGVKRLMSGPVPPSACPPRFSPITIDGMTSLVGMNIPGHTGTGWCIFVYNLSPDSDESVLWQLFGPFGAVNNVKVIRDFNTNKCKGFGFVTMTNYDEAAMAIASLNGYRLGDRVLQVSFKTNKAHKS
UniProt Q9QZ81: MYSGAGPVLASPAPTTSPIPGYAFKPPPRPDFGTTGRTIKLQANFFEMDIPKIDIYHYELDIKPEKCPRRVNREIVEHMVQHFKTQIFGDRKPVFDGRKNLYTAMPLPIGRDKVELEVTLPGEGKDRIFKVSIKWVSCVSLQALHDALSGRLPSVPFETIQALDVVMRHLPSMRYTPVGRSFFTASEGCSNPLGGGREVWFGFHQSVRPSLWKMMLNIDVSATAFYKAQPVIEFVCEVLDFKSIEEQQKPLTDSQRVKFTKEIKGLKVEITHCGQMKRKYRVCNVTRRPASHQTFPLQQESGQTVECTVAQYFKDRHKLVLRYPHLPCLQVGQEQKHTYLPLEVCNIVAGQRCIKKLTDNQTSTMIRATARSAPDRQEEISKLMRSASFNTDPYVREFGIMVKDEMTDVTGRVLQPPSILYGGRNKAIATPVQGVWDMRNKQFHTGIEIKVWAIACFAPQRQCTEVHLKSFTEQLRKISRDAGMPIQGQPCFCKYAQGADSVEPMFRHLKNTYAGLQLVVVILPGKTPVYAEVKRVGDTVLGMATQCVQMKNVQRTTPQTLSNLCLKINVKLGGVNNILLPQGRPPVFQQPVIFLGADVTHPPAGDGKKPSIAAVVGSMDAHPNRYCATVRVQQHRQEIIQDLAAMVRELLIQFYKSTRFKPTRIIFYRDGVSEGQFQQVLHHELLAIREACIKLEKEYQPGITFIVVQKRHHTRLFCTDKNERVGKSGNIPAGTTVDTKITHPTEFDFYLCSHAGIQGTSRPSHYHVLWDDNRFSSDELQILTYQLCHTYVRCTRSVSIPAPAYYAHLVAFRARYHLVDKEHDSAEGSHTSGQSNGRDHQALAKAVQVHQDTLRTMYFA

Assay [1] concerns the target T1, Upf1 (rat (endogenous in sympathetic neurons of Sprague Dawley rats and in PC12 cells)).
T1 sequence: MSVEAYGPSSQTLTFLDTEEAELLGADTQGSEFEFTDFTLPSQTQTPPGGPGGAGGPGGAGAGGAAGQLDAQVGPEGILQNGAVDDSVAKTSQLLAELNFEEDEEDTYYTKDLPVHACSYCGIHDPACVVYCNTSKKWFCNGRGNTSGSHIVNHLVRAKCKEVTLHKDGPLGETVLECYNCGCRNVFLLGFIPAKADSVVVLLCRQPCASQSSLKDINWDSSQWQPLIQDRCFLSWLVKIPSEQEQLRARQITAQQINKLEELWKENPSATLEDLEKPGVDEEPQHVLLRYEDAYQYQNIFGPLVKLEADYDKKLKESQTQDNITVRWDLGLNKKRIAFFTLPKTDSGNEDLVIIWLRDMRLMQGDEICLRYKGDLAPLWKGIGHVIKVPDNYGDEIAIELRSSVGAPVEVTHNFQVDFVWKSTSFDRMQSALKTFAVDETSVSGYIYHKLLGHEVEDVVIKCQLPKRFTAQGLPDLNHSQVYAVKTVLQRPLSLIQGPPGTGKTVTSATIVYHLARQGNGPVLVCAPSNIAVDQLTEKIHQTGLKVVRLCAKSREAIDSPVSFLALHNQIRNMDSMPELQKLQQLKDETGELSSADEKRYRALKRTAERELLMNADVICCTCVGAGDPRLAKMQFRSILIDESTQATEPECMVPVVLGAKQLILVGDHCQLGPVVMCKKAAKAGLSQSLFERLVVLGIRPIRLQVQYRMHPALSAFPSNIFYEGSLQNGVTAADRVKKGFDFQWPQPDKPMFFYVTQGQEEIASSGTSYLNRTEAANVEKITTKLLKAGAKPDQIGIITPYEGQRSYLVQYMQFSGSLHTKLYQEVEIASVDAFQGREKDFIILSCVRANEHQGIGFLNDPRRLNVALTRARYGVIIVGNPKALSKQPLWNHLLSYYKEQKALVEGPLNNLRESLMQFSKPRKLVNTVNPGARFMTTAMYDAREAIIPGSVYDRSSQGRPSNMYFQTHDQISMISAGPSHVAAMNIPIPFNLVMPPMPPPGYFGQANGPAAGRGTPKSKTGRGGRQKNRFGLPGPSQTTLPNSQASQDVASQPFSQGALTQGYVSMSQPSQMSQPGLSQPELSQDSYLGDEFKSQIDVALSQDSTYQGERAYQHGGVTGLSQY
Put plainly: co-IP.

For assay [2] the target is unchanged. Nature of the assay: co-IP. This is another data set of the same source.

Like-named read-outs stand apart in the source and are kept apart here. Results are given in words; binding and its absence hold for the method and conditions named. In cells and extracts the contact can be indirect. Some binding calls cover weakened binding; strength is not graded here.

For “ELAV-like protein 4 (from UniProt O09032 1-385)”, the binding entry in assay [1] and in assay [2] was “binds” each time.

In the case of argonaute-2 (from UniProt Q9QZ81 1-860), the binding entry in assay [1] and in assay [2] was “binds” throughout.
